Sequences of proteins named here, by UniProt entry; tags and fusion partners are left off. Residues count along the entry.
UniProt Q15858, whole entry: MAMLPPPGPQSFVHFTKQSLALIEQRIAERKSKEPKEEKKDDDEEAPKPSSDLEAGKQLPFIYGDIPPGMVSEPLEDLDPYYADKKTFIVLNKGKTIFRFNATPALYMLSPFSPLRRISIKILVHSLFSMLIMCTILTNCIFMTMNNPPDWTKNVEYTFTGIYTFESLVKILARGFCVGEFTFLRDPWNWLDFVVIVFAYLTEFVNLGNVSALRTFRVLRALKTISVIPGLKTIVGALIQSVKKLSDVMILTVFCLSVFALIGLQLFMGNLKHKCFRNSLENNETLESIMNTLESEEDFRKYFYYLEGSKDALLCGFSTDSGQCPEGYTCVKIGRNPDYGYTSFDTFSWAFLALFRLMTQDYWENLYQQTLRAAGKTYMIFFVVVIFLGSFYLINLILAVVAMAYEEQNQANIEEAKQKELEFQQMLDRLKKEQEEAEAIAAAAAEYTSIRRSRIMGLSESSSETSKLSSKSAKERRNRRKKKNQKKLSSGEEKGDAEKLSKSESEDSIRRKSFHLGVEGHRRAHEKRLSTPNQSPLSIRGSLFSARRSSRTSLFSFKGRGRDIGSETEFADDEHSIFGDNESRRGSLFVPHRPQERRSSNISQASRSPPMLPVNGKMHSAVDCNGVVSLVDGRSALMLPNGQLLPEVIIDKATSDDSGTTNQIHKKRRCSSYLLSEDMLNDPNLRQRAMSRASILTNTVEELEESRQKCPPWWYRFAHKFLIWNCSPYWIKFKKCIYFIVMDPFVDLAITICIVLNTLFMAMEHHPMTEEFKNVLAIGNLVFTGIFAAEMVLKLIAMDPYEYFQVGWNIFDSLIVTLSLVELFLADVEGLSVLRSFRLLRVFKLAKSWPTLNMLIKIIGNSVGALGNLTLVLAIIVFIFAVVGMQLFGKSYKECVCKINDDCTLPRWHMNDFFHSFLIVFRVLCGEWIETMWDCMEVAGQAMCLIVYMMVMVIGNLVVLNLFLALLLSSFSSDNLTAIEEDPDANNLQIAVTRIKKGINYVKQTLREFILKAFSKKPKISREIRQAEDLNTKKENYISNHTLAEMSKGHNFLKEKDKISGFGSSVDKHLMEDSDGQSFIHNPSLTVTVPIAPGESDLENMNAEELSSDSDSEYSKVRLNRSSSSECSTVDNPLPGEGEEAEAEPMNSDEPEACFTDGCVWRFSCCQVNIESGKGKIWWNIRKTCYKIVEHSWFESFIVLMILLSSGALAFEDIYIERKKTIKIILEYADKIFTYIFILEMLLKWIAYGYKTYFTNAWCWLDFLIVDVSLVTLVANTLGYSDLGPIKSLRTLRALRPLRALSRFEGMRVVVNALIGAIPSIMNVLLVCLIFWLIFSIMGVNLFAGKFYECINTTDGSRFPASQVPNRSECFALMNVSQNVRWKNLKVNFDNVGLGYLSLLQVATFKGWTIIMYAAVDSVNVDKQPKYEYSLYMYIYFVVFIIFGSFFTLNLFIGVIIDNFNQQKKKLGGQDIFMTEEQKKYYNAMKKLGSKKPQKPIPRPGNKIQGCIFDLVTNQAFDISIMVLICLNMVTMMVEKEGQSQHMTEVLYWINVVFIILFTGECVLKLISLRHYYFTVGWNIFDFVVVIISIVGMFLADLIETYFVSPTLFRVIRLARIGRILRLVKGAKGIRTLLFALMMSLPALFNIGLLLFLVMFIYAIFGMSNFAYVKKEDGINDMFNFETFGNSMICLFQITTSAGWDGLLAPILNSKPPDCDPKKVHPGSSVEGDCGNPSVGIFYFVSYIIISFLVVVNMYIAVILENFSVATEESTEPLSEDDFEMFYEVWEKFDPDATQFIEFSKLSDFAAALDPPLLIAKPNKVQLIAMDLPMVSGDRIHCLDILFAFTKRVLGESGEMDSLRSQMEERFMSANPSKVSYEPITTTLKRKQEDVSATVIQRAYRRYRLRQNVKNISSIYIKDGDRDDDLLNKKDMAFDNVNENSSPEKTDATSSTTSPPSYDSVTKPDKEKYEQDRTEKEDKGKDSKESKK
UniProt Q07699, 19-218 partner limits assumed: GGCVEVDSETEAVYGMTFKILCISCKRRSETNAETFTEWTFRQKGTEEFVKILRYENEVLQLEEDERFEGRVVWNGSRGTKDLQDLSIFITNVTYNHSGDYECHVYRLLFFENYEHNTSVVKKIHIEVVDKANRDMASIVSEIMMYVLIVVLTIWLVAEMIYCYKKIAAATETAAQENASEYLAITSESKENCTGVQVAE

In patent US10787446B2 (GENENTECH, INC., priority 2015, dated 2020):

Target: hNav1.7 and the β1 subunit (Homo sapiens, UniProt Q15858)
Experiment: Tritiated compound competitive binding to membranes from cells heterologously expressing hNav1.7 and the β1 subunit (LBA)
Conditions: read-out: Nav1.7 (LBA); competition with 100 pM [3H]compound, 18 h, room temperature; IC50 by 4 parameter logistic model

Cn1nccc1[C@H]1C[C@@H](C(F)(F)F)CCN1[C@H]1CCOc2cc(S(=O)(=O)Nc3nccs3)c(F)cc21 (single isomer, unassigned)
IC50: 1.55 nM

The match of structure and compound is tentative.
